Source: patent publication US20090220484A1
Results are given in words; binding and its absence hold for the method and conditions named. For some assays here: In cells and extracts the contact can be indirect. Some entries that bind do so weakly or less than the wild type.

Amino acid sequences for entries named in this document (tags omitted). A change or cut given only in a name is not applied to a line headed by its entry.
UniProt Q15109: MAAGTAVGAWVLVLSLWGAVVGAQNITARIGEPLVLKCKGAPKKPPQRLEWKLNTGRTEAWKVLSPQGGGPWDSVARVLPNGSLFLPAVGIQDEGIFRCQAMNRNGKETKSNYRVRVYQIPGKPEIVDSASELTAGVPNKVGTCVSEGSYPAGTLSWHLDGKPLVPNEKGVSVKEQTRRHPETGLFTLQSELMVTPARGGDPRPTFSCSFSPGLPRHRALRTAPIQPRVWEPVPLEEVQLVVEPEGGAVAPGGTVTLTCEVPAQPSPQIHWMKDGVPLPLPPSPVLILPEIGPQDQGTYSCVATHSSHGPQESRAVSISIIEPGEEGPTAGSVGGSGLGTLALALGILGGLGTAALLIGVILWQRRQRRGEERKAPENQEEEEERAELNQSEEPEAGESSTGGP
UniProt O60610: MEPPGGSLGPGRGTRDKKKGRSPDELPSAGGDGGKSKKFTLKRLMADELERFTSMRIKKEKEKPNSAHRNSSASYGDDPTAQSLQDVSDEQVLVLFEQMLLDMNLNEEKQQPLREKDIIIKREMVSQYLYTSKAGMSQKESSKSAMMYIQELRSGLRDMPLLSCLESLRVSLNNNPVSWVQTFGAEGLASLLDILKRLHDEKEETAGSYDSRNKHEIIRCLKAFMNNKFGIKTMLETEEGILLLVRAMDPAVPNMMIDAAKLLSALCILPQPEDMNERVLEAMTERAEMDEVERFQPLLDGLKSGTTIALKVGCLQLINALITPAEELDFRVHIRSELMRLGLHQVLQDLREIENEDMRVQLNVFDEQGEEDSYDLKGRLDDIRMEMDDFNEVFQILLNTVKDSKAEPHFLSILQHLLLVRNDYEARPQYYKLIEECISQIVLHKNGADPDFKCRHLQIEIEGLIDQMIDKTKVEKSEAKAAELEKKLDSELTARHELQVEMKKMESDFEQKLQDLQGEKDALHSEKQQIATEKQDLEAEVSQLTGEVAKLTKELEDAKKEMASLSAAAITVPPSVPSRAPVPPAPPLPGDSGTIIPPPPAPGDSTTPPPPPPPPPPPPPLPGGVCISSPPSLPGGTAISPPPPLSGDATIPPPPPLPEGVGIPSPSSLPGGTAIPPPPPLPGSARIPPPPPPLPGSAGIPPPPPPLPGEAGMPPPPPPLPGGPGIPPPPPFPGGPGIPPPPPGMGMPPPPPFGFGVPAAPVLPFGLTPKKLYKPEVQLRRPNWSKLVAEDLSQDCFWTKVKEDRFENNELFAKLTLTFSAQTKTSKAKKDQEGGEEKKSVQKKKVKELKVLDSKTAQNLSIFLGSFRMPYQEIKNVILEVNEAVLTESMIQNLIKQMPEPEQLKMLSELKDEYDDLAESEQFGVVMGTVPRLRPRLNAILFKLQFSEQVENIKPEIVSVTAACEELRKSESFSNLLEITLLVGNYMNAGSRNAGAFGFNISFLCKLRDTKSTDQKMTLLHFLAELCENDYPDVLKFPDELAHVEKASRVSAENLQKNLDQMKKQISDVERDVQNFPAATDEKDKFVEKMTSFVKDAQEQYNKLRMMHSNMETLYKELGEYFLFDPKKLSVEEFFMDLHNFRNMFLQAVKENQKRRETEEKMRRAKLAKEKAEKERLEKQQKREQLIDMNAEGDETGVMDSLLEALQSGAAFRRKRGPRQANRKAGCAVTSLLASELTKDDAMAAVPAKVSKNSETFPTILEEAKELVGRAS

Tests used:
[1] = biological target: His-tagged RAGE tail (human) (UniProt Q15109); test: immunoprecipitation and confocal microscopy
[2] = biological target: His-tagged RAGE tail (human) (UniProt Q15109); test: co-immunoprecipitation from transfected cells: IP with anti-his IgG, western blot with anti-myc IgG

binding [1]: binds
binding [2]: binds
Substance: Myc-tagged Diaphanous (from UniProt O60610 1-1272)
